The whole screen tested about 580,000 compounds, of which about 6,100 (1.1%) were called active. The inconclusive results got no clear call from the source; some entries with a clear call stand among them for comparison. Calls follow the shape of the dose curve; as a rule, active = well fitted inhibition curve with a large enough effect; inconclusive = small, poorly fitted or top-dose-only effect, or another doubt; inactive = no such curve, though single readings can be large or run the other way. A potency beside an inconclusive call is a rough fit, not a confirmed value.
These compounds were tested against Polyunsaturated fatty acid lipoxygenase ALOX12 (Homo sapiens) (UniProt P18054) (assay: Primary qHTS assay for inhibitors of human arachidonate 12S-lipoxygenase (ALOX12): Round 2). Settings: purified 12hLO, xylenol orange hydroperoxide absorbance; activity change, negative = inhibition: at 108 µM (top of the series) unless noted.
Procedure, shortened: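 Purified human 12hLO at 150 nM in 25 mM Hepes, 0.01% Triton X-100, pH 7.0, preincubated 15 min at room temperature with compound. Reaction started with 40 uM arachidonic acid, 30 min at room temperature. Hydroperoxide measured by Fe-xylenol orange, 573/405 nm absorbance ratio.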
% is scaled to controls: 0 for no effect and ±100 for the full control effect; potency is read from the fitted curve at half-maximal effect.

Protein sequences, listed by entry. Tags and fused reporters are not part of them. Lines headed by an entry give the natural chain unless they say otherwise; changes in a name come on top.
UniProt P18054: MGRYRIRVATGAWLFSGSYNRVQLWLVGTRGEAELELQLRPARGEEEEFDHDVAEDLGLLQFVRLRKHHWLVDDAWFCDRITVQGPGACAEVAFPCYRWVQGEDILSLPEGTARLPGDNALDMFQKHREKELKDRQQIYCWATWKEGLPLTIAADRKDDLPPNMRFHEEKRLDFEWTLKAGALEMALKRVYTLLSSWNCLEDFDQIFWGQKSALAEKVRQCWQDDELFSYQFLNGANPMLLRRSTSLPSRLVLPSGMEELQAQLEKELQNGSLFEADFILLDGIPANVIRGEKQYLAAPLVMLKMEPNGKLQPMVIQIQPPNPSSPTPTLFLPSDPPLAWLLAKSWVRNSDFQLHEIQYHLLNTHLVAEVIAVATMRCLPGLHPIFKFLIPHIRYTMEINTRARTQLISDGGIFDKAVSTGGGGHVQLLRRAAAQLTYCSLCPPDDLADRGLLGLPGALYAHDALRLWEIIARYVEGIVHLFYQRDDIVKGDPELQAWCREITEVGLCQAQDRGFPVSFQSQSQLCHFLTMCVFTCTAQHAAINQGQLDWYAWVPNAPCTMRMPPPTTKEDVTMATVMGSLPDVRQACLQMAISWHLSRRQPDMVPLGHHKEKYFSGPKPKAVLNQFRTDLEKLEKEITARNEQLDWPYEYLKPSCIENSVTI

Row | SMILES | Potency | activity change, negative = inhibition
1 | CCn1c(C(=O)NCc2ccccc2C)cc2oc3ccccc3c21 | inconclusive: 100 µM [inhibitor, partial curve, poor fit] | –
2 | COC(=O)c1ccccc1NC(=O)c1ncoc1-c1ccco1 | – | inactive: -19.7%
3 | CCCCC1Cc2[nH][nH]c(=O)c2C(c2ccc(F)cc2)O1 (stereo unspecified) | inconclusive: 112 µM [inhibitor, single point] | –
4 | O=C(O)C(c1ccccc1)N1CCCCC1 (stereo unspecified) | inconclusive: 35.5 µM [inhibitor, partial curve] | –
5 | O=C(O)c1cccc(-n2sc3ccccc3c2=O)c1 | active: 11.2 µM | –
6 | COc1ccc(/C=C/C(=O)OCC(=O)NCCCc2ccccc2)cc1OC | inconclusive: 50.1 µM [inhibitor, partial curve, poor fit] | –
7 | Cc1ccc(S(=O)(=O)Nc2cc3c4c(c2)C(C)C(=O)N4CCC3)cc1 (stereo unspecified) | inconclusive: 56.2 µM [inhibitor, partial curve, poor fit] | –
8 | N=C1CCCC1C(=S)SCCC(N)=O (stereo unspecified) | inconclusive: 25.1 µM [inhibitor, single point] | –
9 | Cc1cc(C)nc(SCc2nnc(SCC(=O)Nc3ccccc3C)n2Cc2ccco2)n1 | inconclusive: 63.1 µM [inhibitor, partial curve, poor fit] | –
10 | CC(C)CN1CCNC(=O)C1CC(=O)NC(C)(C)Cc1ccc(F)cc1 (stereo unspecified) | – | inactive: -2.2%
11 | O=C(O)c1cccnc1SCc1cn2cc(Br)ccc2n1 | inconclusive: 35.5 µM [inhibitor, partial curve, poor fit] | –
12 | COCCn1c(C)cc(C(=O)CSc2nnc(Nc3ccccc3F)s2)c1C | – | inactive: -13.4%
13 | Cc1ccc(S(=O)(=O)N2[C@@H](c3cccc(Cl)c3)C(C(=O)O)=CC[C@H]2c2ccc(Cl)cc2)cc1 | inconclusive: 50.1 µM [inhibitor, partial curve, poor fit] | –
14 | COc1ccc(C(C)(O)c2nc(-c3ccccc3)cs2)cc1 (stereo unspecified) | inconclusive: 112 µM [inhibitor, single point] | –
15 | Cc1cc(NC(=O)CN(C)CC(=O)Nc2ccc(Cl)c(C(F)(F)F)c2)no1 | – | inactive: 3.06%
16 | CCOC(=O)CSc1ccc2nnc(CCNS(=O)(=O)c3ccccc3)n2n1 | inconclusive: 10 µM [inhibitor, full curve, poor fit] | –
17 | CCC(=O)N1N=C(c2ccccc2NS(=O)(=O)c2ccccc2)CC1c1ccccc1 (stereo unspecified) | – | inactive: -13.3%
18 | O=C(/C=C/c1cccc([N+](=O)[O-])c1)Nc1ccc(NC(=O)c2cccs2)cc1 | inconclusive: 63.1 µM [inhibitor, partial curve, poor fit] | –
19 | COc1ccc(COc2cc(-c3cccc(OC)c3)nc3ccc(NC(=O)c4ccc(Cl)cc4)cc23)cc1 | inconclusive: 39.8 µM [inhibitor, single point] | –
20 | CCCOc1cccc(C2C(C(=O)c3ccco3)=C(O)C(=O)N2CCN(CC)CC)c1 (stereo unspecified) | inconclusive: 112 µM [inhibitor, partial curve, poor fit] | –
21 | COc1ccc(CCN(Cc2cccs2)S(=O)(=O)c2ccc(-n3cnnn3)c(OC)c2)cc1OC | – | inactive: 0%
22 | Cc1nc(/C(N)=N/OC(=O)c2ccccc2Cl)c(C(F)(F)F)o1 | inconclusive: 28.2 µM [inhibitor, single point] | –

Row | SMILES | Potency | activity change, negative = inhibition
23 | CCOc1ccc(NC(=O)CSc2nc3ccsc3c(=O)n2CCCCC(=O)O)cc1 | – | inactive: -3.09%
24 | S=C(NN=Cc1ccc2c(c1)OCO2)NN=Cc1ccc2c(c1)OCO2 | inconclusive: 44.7 µM [inhibitor, partial curve, poor fit] | –
25 | O=C(NC(=S)NCCc1ccccc1)c1ccc(Cl)cc1 | inconclusive: 100 µM [inhibitor, partial curve, poor fit] | –
26 | Cc1ccc(-n2ccc(=O)c(-c3ccnc(SCc4cccc(Cl)c4)n3)n2)cc1 | inconclusive: 50.1 µM [inhibitor, partial curve, poor fit] | –
27 | COc1cc(C(=O)Nc2cccc(Cl)c2)nc2ccc(Cl)cc12 | inconclusive: 25.1 µM [inhibitor, partial curve, poor fit] | –
28 | O=C(CN1CCN(S(=O)(=O)c2cc(C(F)(F)F)ccc2Cl)CC1)N1CCc2ccccc2C1 | inconclusive: 2 µM [inhibitor, full curve, poor fit] | –
29 | CCN1CCN(C(=O)Nc2ccc(C)cc2C)CC1 | – | inactive: 20.5%
30 | COc1cc2c(cc1OC)C(COc1ccc3c(C)cc(=O)oc3c1)N(C(=O)c1cccc(C)c1)CC2 (stereo unspecified) | inconclusive: 112 µM [inhibitor, partial curve, poor fit] | –
31 | CC(C)n1c(Br)nc2c1c(=O)[nH]c(=O)n2C | inconclusive: 17.8 µM [inhibitor, full curve, poor fit] | –
32 | CCOC(=O)Cc1c(C(=O)OCC)[nH]c2c1C(=O)CCC2 | inconclusive: 3.55 µM [inhibitor, full curve, poor fit] | –
33 | Cc1ccc(C(=O)NCCCN2CCCC2)cc1 | inconclusive: 35.5 µM [inhibitor, partial curve, poor fit] | –
34 | CC(NC(=O)c1ccc(-c2ccco2)cc1)c1ccccc1 (stereo unspecified) | active: 12.6 µM | –
35 | Cc1ccc(-c2cc(C(=O)O)c3cc(Cl)ccc3n2)cc1C | inconclusive: 7.94 µM [inhibitor, full curve, poor fit] | –
36 | CC1CCCCC12NC(=O)N(CC(=O)NC(=O)NCc1ccco1)C2=O (stereo unspecified) | inconclusive: 39.8 µM [inhibitor, partial curve, poor fit] | –
37 | c1ccc(Oc2cccc(-c3nc4ccccc4s3)c2)cc1 | – | inactive: 43.5%
38 | COC(=O)C(OC(=O)c1[nH]c(C)c(C(C)=O)c1C)c1ccccc1Cl (stereo unspecified) | inconclusive: 6.31 µM [inhibitor, full curve, poor fit] | –
39 | Cc1ccc2nc(C)c(C(=O)/C=C/c3ccccc3)c(-c3ccccc3)c2c1 | – | inactive: -2.25%
40 | COc1c(O)cccc1[C@H](O)C1CCN(CCc2ccc(F)cc2)CC1 | inconclusive: 44.7 µM [inhibitor, partial curve, poor fit] | –
41 | NC(=O)CSc1oc(-c2ccco2)nc1S(=O)(=O)c1ccc(Cl)cc1 | active: 28.2 µM | –
42 | COc1ccc(OC)c(S(=O)(=O)Nc2ccc(Nc3nc(C)cc(N(C)C)n3)cc2)c1 | inconclusive: 44.7 µM [inhibitor, partial curve, poor fit] | –
43 | O=C(NC(NNc1ccc([N+](=O)[O-])cc1)(C(F)(F)F)C(F)(F)F)c1ccc(F)cc1 | inconclusive: 35.5 µM [inhibitor, partial curve, poor fit] | –
44 | CC(=O)OC[C@@H]1CN(Cc2ccccc2)C[C@H](n2ccc3c(N)ncnc32)O1 | inconclusive: 1.26 µM [inhibitor, full curve, poor fit] | –

Looked up above:
In Potency, NC(=O)CSc1oc(-c2ccco2)nc1S(=O)(=O)c1ccc(Cl)cc1 reads active: 28.2 µM
In Potency, O=C(NC(NNc1ccc([N+](=O)[O-])cc1)(C(F)(F)F)C(F)(F)F)c1ccc(F)cc1 reads inconclusive: 35.5 µM [inhibitor, partial curve, poor fit]
In Potency, COC(=O)C(OC(=O)c1[nH]c(C)c(C(C)=O)c1C)c1ccccc1Cl (stereo unspecified) reads inconclusive: 6.31 µM [inhibitor, full curve, poor fit]
In Potency, Cc1cc(C)nc(SCc2nnc(SCC(=O)Nc3ccccc3C)n2Cc2ccco2)n1 reads inconclusive: 63.1 µM [inhibitor, partial curve, poor fit]

The list continues:

Row | SMILES | Potency | activity change, negative = inhibition
45 | CN(C)C(=O)CCN1CCOC(CC(c2ccccc2)c2ccccc2)C1 (stereo unspecified) | – | inactive: 12.4%
46 | COCCCNC(=S)NC(=O)c1ccc(C)cc1 | inconclusive: 50.1 µM [inhibitor, partial curve, poor fit] | –
47 | COc1ccc(N(C)C(=O)c2sc(Cl)nc2C)cc1 | inconclusive: 4.47 µM [inhibitor, full curve, poor fit] | –
48 | O=[N+]([O-])c1ccc(CSC2=NCCN2)cc1 | – | inactive: 0%
49 | Cc1ccc2oc(C(=O)N3CCC(Cc4ccccc4)CC3)cc(=O)c2c1 | inconclusive: 126 µM [inhibitor, single point] | –
50 | OCCN1CCN(CC/C=C2/c3ccccc3Sc3ccc(C(F)(F)F)cc32)CC1 | inconclusive: 79.4 µM [inhibitor, partial curve, poor fit] | –
51 | O=c1c2ccccc2cnn1Cc1n[nH]c(=S)n1-c1cc(Cl)cc(Cl)c1 | inconclusive: 44.7 µM [inhibitor, partial curve, poor fit] | –
52 | OC(COc1ccccc1)CN1CCN(C(c2ccccc2)c2ccccc2)CC1 (stereo unspecified) | – | inactive: -30%
53 | Cc1cc(C)cc(CC(=O)N2CCC2(C)C(=O)NS(=O)(=O)c2cccc(F)c2)c1 (stereo unspecified) | inconclusive: 0.562 µM [inhibitor, full curve, poor fit] | –
54 | CSc1ccc(CNC(=O)C2CCN(C(=O)c3ncn4c3COC(c3ccccc3)C4)CC2)cc1 (stereo unspecified) | – | inactive: 27.7%
55 | O=C1COc2ccc(C(=O)CSc3nnnn3-c3ccccc3)cc2N1 | inconclusive: 56.2 µM [inhibitor, partial curve, poor fit] | –
56 | O=C1CC(c2ccccc2)N(Cc2ccncc2)CCCN(S(=O)(=O)c2cccc(F)c2)CCN1 (stereo unspecified) | – | inactive: 8.94%
57 | COc1ccc(CCNc2nc(-c3ccc(F)cc3)c(CC(=O)O)s2)cc1OC | – | inactive: -0.546%
58 | CCC1CCCCN1C(=O)Cn1c(=O)oc2cc(S(=O)(=O)N3CCCCC3)ccc21 (stereo unspecified) | inconclusive: 141 µM [inhibitor, partial curve, poor fit] | –
59 | CN(C)CCCCOc1ccc(F)cc1 | – | inactive: -16.2%
60 | Cc1nn2c(c1-c1ccccc1Oc1ccccc1)N(C(=O)c1ccc(F)cc1)CCC2 | inconclusive: 100 µM [inhibitor, partial curve, poor fit] | –
61 | Cc1nn(Cc2ccccc2Cl)c(C)c1NC(=O)c1cc(C(C)C)on1 | – | inconclusive: -35% [inhibitor]
62 | Cc1ccc(NC(=O)C(Cc2ccccc2)NS(=O)(=O)c2ccc3c(c2)oc(=O)n3C)cc1F (stereo unspecified) | – | inactive: -4.36%
63 | Cc1nc(CN2Cc3nc(Nc4ccc(C(F)(F)F)cc4)ccc3OCC2=O)cs1 | inconclusive: 50.1 µM [inhibitor, partial curve] | –
64 | Nc1nc(NCc2ccccc2)sc1C(=O)c1ccc(F)cc1 | – | inactive: 4.22%
65 | CCOc1ccc(-c2c(=O)n(OCC)c3ccccc3[n+]2[O-])cc1 | inconclusive: 141 µM [inhibitor, partial curve, poor fit] | –
66 | O=C(Nc1nc2n(n1)C(c1ccc(F)cc1)C=C(c1ccccc1)N2)c1ccc(Cl)cc1 (stereo unspecified) | inconclusive: 112 µM [inhibitor, single point] | –

— PubChem BioAssay AID1671190 (National Center for Advancing Translational Sciences (NCATS), 2021)
